Patent publication US20120148607A1
No constants are given. Whether binding was seen depends on the method and setting.

The chains behind the UniProt entries cited, without tags or fusion partners. Where a name states a change or a piece, a line headed by the entry shows the natural chain unless it says otherwise.
UniProt P08581: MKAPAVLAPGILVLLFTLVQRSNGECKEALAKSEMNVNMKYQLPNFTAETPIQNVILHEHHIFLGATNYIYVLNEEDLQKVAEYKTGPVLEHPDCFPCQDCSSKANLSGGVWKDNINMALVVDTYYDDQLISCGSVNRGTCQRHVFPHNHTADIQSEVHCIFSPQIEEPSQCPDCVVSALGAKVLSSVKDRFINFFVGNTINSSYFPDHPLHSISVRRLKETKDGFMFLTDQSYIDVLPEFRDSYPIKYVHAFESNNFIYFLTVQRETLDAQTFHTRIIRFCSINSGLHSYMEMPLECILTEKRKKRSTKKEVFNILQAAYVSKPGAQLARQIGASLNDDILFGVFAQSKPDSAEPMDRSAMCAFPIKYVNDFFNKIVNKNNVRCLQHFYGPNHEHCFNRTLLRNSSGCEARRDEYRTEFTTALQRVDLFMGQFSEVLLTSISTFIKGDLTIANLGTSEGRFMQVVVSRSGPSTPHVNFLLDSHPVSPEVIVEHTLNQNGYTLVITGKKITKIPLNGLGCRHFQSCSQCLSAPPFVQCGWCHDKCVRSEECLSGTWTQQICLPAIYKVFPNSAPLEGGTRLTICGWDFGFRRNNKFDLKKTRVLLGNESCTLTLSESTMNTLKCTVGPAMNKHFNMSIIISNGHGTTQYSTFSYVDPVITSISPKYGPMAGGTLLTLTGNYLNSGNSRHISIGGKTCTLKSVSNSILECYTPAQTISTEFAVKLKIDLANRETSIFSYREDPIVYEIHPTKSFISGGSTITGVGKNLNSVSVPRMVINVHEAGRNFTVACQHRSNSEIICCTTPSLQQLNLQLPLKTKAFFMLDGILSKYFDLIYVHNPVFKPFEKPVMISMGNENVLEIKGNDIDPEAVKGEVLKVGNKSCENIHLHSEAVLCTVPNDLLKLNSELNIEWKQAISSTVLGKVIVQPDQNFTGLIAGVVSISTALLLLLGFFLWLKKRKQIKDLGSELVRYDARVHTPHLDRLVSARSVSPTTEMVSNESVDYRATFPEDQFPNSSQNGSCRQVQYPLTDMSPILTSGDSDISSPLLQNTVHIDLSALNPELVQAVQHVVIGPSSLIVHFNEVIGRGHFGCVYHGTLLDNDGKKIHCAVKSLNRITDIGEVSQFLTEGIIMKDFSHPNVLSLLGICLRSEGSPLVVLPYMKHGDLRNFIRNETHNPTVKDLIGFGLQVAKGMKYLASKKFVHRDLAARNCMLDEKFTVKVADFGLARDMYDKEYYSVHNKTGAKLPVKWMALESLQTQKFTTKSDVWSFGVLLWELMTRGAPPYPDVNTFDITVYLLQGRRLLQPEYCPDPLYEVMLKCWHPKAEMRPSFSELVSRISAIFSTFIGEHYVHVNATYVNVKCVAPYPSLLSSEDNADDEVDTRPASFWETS

Tests used:
[1] = target: Llama glama c-Met ECD (aa 25-932) with His tag (Llama glama); assay: ELISA on immobilised c-Met ECD constructs (200 ng)
[2] = target: Llama glama c-Met ECD (aa 25-932) with His tag (Llama glama); assay: condition: about 1e-7 M (last point midway between the ticks 10^-8 and 10^-6); ELISA: 200 ng of the c-Met ECD protein coated on maxisorb plates; mAb dilutions 1 h RT; HRP-conjugated goat anti-human antibody, TMB, OD 620 nm
[3] = target: LMet (llama c-Met of Table 16) (Llama glama); assay: ELISA, 48A2 (2 µg/ml) immobilised, c-Met construct added, streptavidin-HRP
[4] = target: LMet (llama c-Met of Table 16) (Llama glama); assay: SPR, 48A2 coupled on CM-5 chip, c-Met construct injected
[5] = target: c-Met run under reducing conditions (Western Blot) (UniProt P08581); assay: Western Blot with c-Met run under reducing conditions
[6] = target: LMet (llama c-Met of Table 16) (Llama glama); assay: ELISA, 36C4 (2 µg/ml) immobilised, c-Met construct added, streptavidin-HRP
[7] = target: LMet (llama c-Met of Table 16) (Llama glama); assay: SPR, 36C4 coupled on CM-5 chip, c-Met construct injected

binding [1]	binding [2]	binding [3]	binding [4]	binding [5]	binding [6]	binding [7]	Binder
no binding	no binding	–	–	–	–	–	13E6 mAb (antibody, V domains shown) VH: QVQLQESGGDLVQPGGSLRLSCAASGFTFDDYVMNWVRQAPGKGLEWISAINWNGGSTYYAESMKGRFTISRDNAKNTLYLQMYSLQSDDTAVYYCVKDTVVSGNGYWGQGTQVTVSS VL: QSVLTQPPSVSGTLGKTVTISCAGTSSDIGDYNYVSWYQQLPGTAPKLLIYDVNKRASGIPDRFSGSKSGNTASLSISGLQSEDEADYYCASYRSRNDYAFGGGTKLTVL
no binding	–	no binding	no binding (tested: 10 µg/ml)	no binding	–	–	48A2 mAb (antibody, V domains shown) VH: EVQLVQPGVELRNPGASVKVSCKASGYIFTMNSIDWVRQAPGQGLEWMGRIDPEDGGTKYAQKFQGRVTFTADTSTSTAYVELNSLRSEDTAVYYCARVDDYYLGYDYWGQGTQVTVSS VL: DIVMTQTPTSVTASAGDKVTINCKSSQSVLFSSNQKNYLAWYQQRLGQSPRLLIYWASIRESGVPDRFSGSGSATDFTLTISNFQPEDAAVYYCQQGYSFPYSFGSGTRLEIR
no binding	no binding	–	–	no binding	no binding	no binding (tested: 10 µg/ml)	36C4 mAb (antibody, V domains shown) VH: QVQLVESGPGLVKPSQTLSLTCAVSGGSITTNYYYWSWIRQSPGKGLEWMGVIAYDGSTDYSPSLKSRTSISRDTSKNQFSLQLSSVTPEDTAVYYCARDVRVIATGWATANALDAWGQGTLVTVSS VL: QSVLTQPPSVSGSPGKTVTISCAGTSSDVGYGNYVSWYQQLPGTAPKLLIFAVSYRASGIPDRFSGSKSGNTAFLTISGLQSEDEADYYCASYRSSNNAAVFGGGTHLTVL
